Some of these results come from one statement about several compounds together.
Tested on: RPTE/TERT1 cells
Experiment: Number of cells per well by DAPI analysis (cell viability / proliferation)
Type: cell-based, human
Conditions: at both concentrations (proliferative IC50 and double: PF-9366 10/20 μM, AG-270 257/514 nM); 48 hpi

In the case of `COc1ccc(-c2c(Nc3ccccn3)[nH]c3c(C4=CCCCC4)c(-c4ccccc4)nn3c2=O)cc1` [AG-270], the “cells viable (number of cells normalised to DMSO treated cells)” value is reported as “greater than 70%”.
